The campaign covered roughly 580,000 compounds. About 6,100 (1.1%) were called active. The shares of active, inactive and inconclusive entries below differ from those in the screen. Calls follow the shape of the dose curve; as a rule, active = well fitted inhibition curve with a large enough effect; inconclusive = small, poorly fitted or top-dose-only effect, or another doubt; inactive = no such curve, though single readings can be large or run the other way. Potencies of inconclusive entries are doubtful fits and often do not repeat.
target: Polyunsaturated fatty acid lipoxygenase ALOX12 (Homo sapiens) (UniProt P18054); assay: Primary qHTS assay for inhibitors of human arachidonate 12S-lipoxygenase (ALOX12): Round 2; details: purified 12hLO, xylenol orange hydroperoxide absorbance; activity change, negative = inhibition: at 108 µM (top of the series) unless noted
In short: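 Hydroperoxide product was detected by ferrous iron/xylenol orange as the 573 to 405 nm absorbance ratio. Arachidonic acid at 40 uM (final) was turned over for 30 min at room temperature by 150 nM human 12hLO, pH 7.0 Hepes buffer, after 15 min compound preincubation.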
% is scaled to controls: 0 for no effect and ±100 for the full control effect; potency is read from the fitted curve at half-maximal effect.

The chains behind the UniProt entries cited, without tags or fusion partners. Where a name states a change or a piece, a line headed by the entry shows the natural chain unless it says otherwise.
UniProt P18054: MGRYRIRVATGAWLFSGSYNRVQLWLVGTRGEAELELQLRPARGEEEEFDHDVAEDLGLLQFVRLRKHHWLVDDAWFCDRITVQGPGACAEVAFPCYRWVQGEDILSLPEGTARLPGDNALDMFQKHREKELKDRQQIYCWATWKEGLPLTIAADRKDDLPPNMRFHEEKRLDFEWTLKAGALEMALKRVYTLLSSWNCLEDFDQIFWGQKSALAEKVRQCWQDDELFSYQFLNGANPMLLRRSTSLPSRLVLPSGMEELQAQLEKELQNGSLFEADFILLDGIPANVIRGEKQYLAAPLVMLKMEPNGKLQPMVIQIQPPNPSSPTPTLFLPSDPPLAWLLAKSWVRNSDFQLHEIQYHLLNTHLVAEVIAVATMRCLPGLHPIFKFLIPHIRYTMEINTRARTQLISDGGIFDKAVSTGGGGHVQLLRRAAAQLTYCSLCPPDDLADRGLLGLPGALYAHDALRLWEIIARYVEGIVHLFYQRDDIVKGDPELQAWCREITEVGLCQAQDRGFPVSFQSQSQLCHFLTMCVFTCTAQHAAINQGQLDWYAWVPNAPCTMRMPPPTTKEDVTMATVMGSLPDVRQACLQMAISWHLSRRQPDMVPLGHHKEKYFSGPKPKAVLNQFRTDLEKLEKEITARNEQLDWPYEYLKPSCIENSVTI

| Structure (SMILES) | activity change, negative = inhibition | Potency |
| --- | --- | --- |
| CC(=O)N1CCN(CC[C@H]2CN(C(=O)c3ccc(C(F)(F)F)cc3)CC[C@H]2CC(=O)O)CC1 | inactive: 4.94% | – |
| CCC(C(=O)O)N1C(=O)/C(=C/c2cccn2C)SC1=S (configuration not stated) | – | inconclusive: 20 µM [inhibitor, partial curve, poor fit] |
| Cc1nc2nc(C)c(NC(=O)Nc3ccccc3C(F)(F)F)c(=O)n2[nH]1 | – | inconclusive: 7.94 µM [inhibitor, partial curve, poor fit] |
| Cc1ccc(CNCC(=O)O)cc1 | – | inconclusive: 0.398 µM [inhibitor, full curve, poor fit] |
| CCOc1ccccc1NS(=O)(=O)c1csc(C(N)=O)c1 | inactive: 26.8% | – |
| O=C(Nc1ccccc1F)N1CC(Oc2ccc(-c3noc(-c4ccccc4)n3)cc2)C1 | inactive: 0.608% | – |
| CCOC(=O)C1=CN(c2ccc(F)cc2)C=C(C(=O)OCC)C1c1ccc(F)cc1 | – | inconclusive: 112 µM [inhibitor, partial curve, poor fit] |
| COc1ccc(N2C(N)=C(C#N)C(c3cccnc3)C3=C2CC(C)(C)CC3=O)cc1 (configuration not stated) | – | inconclusive: 28.2 µM [inhibitor, single point] |
| CC1(Cc2cccc(C#N)c2)C(=O)Nc2ccc(-c3cccc(C(F)(F)F)c3)cc21 (configuration not stated) | – | inconclusive: 100 µM [inhibitor, single point] |
| CCC1Oc2ccc(NC(=O)CC(C)(C)C)cc2CN(Cc2ccccc2F)C1=O (configuration not stated) | inactive: 16.8% | – |
| COc1ccc2[nH]cc(CCNC(=O)Cc3ccc(Cl)cc3)c2c1 | – | inconclusive: 50.1 µM [inhibitor, partial curve, poor fit] |
| O=C(CNCc1ccccc1)NCCCN1CCCC1=O | – | inconclusive: 0.631 µM [inhibitor, full curve, poor fit] |
| COc1ccc(-c2cc(N3CCCC(NC(=O)c4cccc(Cl)c4)C3)n[nH]2)cc1 (configuration not stated) | – | inconclusive: 79.4 µM [inhibitor, single point] |
| CC(C)C(NC(=O)c1ccc(Cl)cc1Cl)C(=O)N1CCN(S(=O)(=O)c2ccccc2)CC1 (configuration not stated) | – | inconclusive: 44.7 µM [inhibitor, partial curve, poor fit] |
| Cc1ccc(NC(=O)c2ccc(NCCN)c([N+](=O)[O-])c2)cc1 | – | inconclusive: 15.8 µM [inhibitor, full curve, poor fit] |
| CCn1cc(C(=O)NCCc2ccc(Cl)cc2)c(=O)c2cc(S(=O)(=O)N(C)C3CCCCC3)ccc21 | – | inconclusive: 44.7 µM [inhibitor, partial curve, poor fit] |
| Cc1ccc(C(c2nnnn2CCC(C)C)N2CCN(C)CC2)cc1 (configuration not stated) | – | inconclusive: 10 µM [inhibitor, full curve, poor fit] |

Retrieved by structure from above:

| Structure (SMILES) | activity change, negative = inhibition | Potency |
| --- | --- | --- |
| CCC1Oc2ccc(NC(=O)CC(C)(C)C)cc2CN(Cc2ccccc2F)C1=O (configuration not stated) | inactive: 16.8% | – |
| COc1ccc(-c2cc(N3CCCC(NC(=O)c4cccc(Cl)c4)C3)n[nH]2)cc1 (configuration not stated) | – | inconclusive: 79.4 µM [inhibitor, single point] |

Reference: PubChem BioAssay AID1671190 (National Center for Advancing Translational Sciences (NCATS), 2021)
